Experimental data: paper PMC3188500

System: TATA binding protein (TBP)
Assay: competition (sequestration from fluorescent TFprobe)
Details: 5 mM MgCl2, 10-fold excess over probe, affinity significantly greater than TFprobe, pseudo-Hill coefficient 4.3; 50 mM sodium phosphate pH 7.0, 150 mM NaCl, 5 mM MgCl2, 25 °C; 10 nM labeled TF switch; recombinant protein; folded or branched DNA

CGTATATAAAGGTTTTTTTCCTTTATATACG [TFDep (unlabeled hairpin depletant)]
binding result: binds

The exact form of at least one protein or probe is not confirmed.
